Where a chain is given by its changes, count along the chain named. Results are given in words; binding and its absence hold for the method and conditions named. In cells and extracts the contact can be indirect. Binding can be weak; no strength is given. Tags and fused reporters may be left off the sequences shown.
Key:
Experiment in all cases: co-IP; DAOY cells transfected for 48 hr with Atoh1-GFP WT, Y78F or Y78D and E47-FLAG or E2.2-FLAG; n = 3
Atoh1-GFP WT (mouse) = biological target: T1, Atoh1-GFP WT (mouse) (UniProt P48985)
T1 sequence: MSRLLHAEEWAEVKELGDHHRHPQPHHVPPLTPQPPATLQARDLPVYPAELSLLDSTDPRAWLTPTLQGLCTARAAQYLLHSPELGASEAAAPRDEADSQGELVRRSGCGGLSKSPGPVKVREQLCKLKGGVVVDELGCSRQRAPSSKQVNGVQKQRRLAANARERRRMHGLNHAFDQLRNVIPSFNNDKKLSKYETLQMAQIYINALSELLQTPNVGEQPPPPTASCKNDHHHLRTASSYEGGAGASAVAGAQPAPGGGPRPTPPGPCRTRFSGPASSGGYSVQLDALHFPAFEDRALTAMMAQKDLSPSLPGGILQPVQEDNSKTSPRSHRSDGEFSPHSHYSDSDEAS

Atoh1-GFP Y78D (mouse) = biological target: T2, Atoh1-GFP Y78D (mouse) (UniProt P48985)
T2 sequence: T1 sequence with Y78D

Atoh1-GFP Y78F (mouse) = biological target: T3, Atoh1-GFP Y78F (mouse) (UniProt P48985)
T3 sequence: T1 sequence with Y78F

binding (Atoh1-GFP WT (mouse)): binds
binding (Atoh1-GFP Y78D (mouse)): binds
binding (Atoh1-GFP Y78F (mouse)): binds
Substance: E47-FLAG (from UniProt P15806-2)

From PMC5736349
